Binding data for seven substances are collected here from publication PMC6092394.

Amino acid sequences for entries named in this document (tags omitted). A change or cut given only in a name is not applied to a line headed by its entry. Chains listed by the source or under a name are the forms on record and can include a tag or linker.
TRPC4β, CFP- or YFP-tagged (Q9QUQ5-2, form named): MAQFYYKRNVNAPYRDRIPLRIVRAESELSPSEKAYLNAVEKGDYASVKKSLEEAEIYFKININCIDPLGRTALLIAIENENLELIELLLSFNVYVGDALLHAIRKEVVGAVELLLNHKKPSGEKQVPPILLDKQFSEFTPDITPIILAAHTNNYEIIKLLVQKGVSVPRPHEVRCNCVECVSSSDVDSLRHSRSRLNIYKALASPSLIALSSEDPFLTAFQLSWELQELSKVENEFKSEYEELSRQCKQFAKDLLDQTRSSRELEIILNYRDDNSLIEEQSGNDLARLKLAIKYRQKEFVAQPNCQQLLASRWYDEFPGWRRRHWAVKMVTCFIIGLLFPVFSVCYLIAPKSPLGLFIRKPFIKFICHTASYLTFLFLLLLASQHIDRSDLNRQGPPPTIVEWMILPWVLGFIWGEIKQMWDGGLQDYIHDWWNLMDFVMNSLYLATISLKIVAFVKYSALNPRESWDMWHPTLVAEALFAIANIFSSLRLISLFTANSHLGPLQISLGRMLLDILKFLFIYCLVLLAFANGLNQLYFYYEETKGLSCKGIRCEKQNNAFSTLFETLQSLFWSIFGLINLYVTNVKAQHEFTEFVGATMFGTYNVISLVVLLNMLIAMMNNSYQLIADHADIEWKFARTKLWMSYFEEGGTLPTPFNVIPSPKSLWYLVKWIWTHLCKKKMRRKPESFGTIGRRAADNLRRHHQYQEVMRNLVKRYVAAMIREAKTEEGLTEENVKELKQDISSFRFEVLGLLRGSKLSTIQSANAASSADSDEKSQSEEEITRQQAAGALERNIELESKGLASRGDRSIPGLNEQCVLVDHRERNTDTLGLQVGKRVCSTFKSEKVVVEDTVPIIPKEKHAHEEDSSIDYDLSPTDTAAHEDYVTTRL
UniProt Q9QX29: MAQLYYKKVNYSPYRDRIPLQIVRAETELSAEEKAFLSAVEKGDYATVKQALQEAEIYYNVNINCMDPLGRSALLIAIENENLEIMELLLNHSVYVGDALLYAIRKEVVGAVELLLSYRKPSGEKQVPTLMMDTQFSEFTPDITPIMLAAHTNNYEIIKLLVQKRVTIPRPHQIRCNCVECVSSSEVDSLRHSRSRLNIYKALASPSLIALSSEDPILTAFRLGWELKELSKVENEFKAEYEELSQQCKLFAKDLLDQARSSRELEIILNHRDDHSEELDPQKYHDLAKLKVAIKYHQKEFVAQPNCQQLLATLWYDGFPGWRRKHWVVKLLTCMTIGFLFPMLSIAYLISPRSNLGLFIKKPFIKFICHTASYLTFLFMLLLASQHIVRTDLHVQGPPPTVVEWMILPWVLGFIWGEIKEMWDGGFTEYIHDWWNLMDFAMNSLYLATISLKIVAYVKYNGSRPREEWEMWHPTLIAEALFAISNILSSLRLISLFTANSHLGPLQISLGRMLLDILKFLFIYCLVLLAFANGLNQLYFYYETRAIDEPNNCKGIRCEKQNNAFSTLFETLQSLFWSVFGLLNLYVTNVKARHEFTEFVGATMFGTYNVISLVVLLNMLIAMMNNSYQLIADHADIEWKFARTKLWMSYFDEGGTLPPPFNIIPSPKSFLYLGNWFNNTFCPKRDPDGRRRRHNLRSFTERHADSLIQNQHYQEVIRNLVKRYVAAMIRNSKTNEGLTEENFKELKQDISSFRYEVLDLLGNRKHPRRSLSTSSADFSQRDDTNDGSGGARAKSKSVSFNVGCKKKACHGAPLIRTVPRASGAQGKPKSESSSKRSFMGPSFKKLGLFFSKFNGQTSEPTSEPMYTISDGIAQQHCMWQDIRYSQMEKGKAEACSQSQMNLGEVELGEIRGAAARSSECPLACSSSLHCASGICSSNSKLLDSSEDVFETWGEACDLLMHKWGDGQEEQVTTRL
UniProt P48995: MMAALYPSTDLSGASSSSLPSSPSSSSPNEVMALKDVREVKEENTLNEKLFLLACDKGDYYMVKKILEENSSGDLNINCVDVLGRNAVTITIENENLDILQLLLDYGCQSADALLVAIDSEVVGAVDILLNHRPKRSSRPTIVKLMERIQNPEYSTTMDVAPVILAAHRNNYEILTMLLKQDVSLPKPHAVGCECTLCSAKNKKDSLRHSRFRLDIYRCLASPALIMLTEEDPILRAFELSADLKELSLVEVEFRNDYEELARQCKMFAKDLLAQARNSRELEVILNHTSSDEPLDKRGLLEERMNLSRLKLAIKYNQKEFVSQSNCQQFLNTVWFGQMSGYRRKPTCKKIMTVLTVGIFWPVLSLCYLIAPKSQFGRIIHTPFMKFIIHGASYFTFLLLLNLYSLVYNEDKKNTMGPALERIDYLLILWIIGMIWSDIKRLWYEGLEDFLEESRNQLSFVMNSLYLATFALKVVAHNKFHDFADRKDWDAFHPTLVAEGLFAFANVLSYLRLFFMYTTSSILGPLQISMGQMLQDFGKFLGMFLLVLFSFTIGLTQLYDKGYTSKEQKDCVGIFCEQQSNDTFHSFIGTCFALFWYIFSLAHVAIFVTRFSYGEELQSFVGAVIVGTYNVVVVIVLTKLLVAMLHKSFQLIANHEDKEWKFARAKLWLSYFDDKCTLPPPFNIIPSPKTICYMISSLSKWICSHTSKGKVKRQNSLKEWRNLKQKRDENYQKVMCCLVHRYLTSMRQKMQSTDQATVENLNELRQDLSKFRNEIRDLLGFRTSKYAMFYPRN
UniProt P50148: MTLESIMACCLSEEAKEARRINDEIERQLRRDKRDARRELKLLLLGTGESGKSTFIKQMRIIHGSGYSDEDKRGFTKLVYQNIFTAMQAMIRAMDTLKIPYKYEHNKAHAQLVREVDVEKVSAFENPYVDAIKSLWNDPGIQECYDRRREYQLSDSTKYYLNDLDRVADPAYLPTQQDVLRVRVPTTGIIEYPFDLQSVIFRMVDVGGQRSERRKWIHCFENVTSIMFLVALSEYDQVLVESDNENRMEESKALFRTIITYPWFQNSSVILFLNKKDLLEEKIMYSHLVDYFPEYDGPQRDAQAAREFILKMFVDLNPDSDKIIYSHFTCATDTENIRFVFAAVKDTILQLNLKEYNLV
UniProt P20309: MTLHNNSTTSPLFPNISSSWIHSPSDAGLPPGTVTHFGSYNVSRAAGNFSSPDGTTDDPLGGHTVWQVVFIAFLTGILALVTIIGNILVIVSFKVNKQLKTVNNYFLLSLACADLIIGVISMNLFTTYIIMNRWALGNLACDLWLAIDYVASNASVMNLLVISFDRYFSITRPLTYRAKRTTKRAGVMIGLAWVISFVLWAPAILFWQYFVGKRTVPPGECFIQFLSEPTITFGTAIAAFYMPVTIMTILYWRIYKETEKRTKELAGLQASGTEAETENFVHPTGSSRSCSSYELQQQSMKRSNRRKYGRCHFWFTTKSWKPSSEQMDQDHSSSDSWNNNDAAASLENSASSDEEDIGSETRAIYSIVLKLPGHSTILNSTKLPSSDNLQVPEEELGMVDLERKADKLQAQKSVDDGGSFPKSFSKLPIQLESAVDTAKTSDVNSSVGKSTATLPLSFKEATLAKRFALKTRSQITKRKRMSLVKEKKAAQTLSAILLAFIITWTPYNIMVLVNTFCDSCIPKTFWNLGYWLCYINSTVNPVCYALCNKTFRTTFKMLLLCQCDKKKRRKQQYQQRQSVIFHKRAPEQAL

No constants are given. Whether binding was seen depends on the method and setting. In cells and extracts the contact can be indirect. Some binding calls cover weakened binding; strength is not graded here.

Assay [1] concerns the target TRPC4β (construct of the co-IP in Supplementary Fig. S1) (UniProt Q9QUQ5). The assay can be described thus: co-IP; co-immunoprecipitation of coexpressed TRPC channels (Supplementary Fig. S1); lysis buffer 0.5% Triton X-100, 50 mM Tris-Cl, 150 mM NaCl, 1 mM EDTA, pH 7.5; tags and direction not shown.
Assay [2] concerns the target TRPC5 (construct of the co-IP in Supplementary Fig. S1) (UniProt Q9QX29). Described as above.
The target in assay [3] is TRPC5, CFP- or YFP-tagged (UniProt Q9QX29). Briefly: FRET or BRET; three-cube FRET efficiency at the plasma membrane of living HEK293 cells cotransfected with CFP- and YFP-tagged channels; CFP/YFP ratio 0.5 to 2.0. Background: In BRET a luciferase serves as donor, and the signal depends on an acceptor being close.
Assay [4] addresses TRPC4β, CFP- or YFP-tagged (UniProt Q9QUQ5). The assay is described as above.
The target in assay [5] is TRPC5-Flag (UniProt Q9QX29). Briefly: co-IP; lysates of HEK293 cells expressing TRPC1 with TRPC4β-Flag or TRPC5-Flag and YFP-tagged Gαq (WT or Q209L); immunoprecipitated by a GFP antibody or a Flag antibody, blotted with the other.
Assay [6] deals with TRPC4β-Flag (UniProt Q9QUQ5). The assay is described as above.
Assay [7] has as its target TRPC1α, CFP- or YFP-tagged (UniProt P48995). Briefly: FRET or BRET; three-cube FRET efficiency at the plasma membrane of living HEK293 cells cotransfected with CFP- and YFP-tagged channels; CFP/YFP ratio 0.5 to 2.0.

Take “TRPC1α (construct of the co-IP in Supplementary Fig. S1) (from UniProt P48995 1-793)”: the binding entry in assay [1] and in assay [2] was “binds” in each case.
For “TRPC1α, CFP- or YFP-tagged (from UniProt P48995 1-793)”, the binding result in assay [3] and in assay [4] was “binds” throughout.
For the substance “TRPC4β (construct of the co-IP in Supplementary Fig. S1) (from UniProt Q9QUQ5-2 1-890)”, in assay [2], the binding result is “binds”.
Regarding “TRPC4β, CFP- or YFP-tagged (from UniProt Q9QUQ5-2 1-890)”, the binding result in assay [3] and in assay [4] was “binds” throughout.
In the case of “TRPC5, CFP- or YFP-tagged (from UniProt Q9QX29 1-975)”, in assay [3], the binding result is given as “binds”.
With “YFP-tagged Gαq (Q209L) (from UniProt P50148 1-359)”, the binding entry in assay [5] and in assay [6] was “binds” throughout.
Consider “YFP-tagged muscarinic receptor 3 (from UniProt P20309 1-590)”, for which the binding result in assay [3], in assay [4] and in assay [7] was “no binding” each time.
